According to publication PMC11842803:
Results are given in words; binding and its absence hold for the method and conditions named. In cells and extracts the contact can be indirect. Some binding calls cover weakened binding; strength is not graded here.

Chains of the proteins cited; added tags and fusions are not shown.
UniProt P46937: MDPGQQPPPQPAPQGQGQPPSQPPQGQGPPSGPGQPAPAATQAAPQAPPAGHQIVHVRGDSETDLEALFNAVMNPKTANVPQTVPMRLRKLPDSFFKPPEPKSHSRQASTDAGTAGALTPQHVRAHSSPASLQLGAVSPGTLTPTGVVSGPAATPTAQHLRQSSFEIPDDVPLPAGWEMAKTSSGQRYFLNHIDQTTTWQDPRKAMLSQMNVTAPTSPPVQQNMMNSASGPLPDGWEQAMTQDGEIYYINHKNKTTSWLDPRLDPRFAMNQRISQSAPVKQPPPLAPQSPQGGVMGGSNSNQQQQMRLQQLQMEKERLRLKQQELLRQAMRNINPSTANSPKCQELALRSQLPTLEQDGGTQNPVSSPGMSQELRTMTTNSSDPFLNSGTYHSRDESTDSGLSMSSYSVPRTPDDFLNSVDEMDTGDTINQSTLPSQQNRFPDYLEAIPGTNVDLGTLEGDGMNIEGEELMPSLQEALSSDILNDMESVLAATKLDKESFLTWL
UniProt Q9GZV5: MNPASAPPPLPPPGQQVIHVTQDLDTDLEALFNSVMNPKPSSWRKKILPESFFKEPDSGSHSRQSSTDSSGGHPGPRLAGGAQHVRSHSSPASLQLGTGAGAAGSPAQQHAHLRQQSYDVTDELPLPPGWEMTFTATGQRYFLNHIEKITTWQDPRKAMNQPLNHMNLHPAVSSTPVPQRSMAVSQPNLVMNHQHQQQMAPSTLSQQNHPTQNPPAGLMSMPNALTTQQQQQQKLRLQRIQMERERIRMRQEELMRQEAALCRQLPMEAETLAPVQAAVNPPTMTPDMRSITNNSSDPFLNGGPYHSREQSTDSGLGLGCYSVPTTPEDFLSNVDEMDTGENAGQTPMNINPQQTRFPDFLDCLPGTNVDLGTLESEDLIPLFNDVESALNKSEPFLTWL
UniProt Q9EPK5: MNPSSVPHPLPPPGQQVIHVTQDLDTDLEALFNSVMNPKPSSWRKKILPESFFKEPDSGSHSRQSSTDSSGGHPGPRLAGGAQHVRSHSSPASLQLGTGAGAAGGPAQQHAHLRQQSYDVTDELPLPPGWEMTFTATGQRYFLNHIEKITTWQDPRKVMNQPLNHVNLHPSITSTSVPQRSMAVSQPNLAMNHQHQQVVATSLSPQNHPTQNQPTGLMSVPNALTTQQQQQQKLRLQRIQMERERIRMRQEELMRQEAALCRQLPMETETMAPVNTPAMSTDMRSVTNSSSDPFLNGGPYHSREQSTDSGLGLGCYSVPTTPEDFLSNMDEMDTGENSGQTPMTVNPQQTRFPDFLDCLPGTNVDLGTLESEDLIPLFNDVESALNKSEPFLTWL
UniProt P46938: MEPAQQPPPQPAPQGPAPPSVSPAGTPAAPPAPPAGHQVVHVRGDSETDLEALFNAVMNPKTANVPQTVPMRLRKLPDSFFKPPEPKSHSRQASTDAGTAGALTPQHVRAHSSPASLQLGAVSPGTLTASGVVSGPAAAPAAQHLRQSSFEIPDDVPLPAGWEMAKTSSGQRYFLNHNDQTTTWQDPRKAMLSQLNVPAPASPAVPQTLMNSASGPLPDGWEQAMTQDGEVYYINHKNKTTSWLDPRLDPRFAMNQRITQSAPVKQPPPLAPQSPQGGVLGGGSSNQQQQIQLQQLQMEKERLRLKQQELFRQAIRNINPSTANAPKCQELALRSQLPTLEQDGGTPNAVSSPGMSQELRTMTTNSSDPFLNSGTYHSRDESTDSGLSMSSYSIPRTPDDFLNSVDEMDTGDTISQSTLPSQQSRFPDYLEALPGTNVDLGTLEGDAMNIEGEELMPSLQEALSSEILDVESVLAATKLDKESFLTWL
UniProt O00429: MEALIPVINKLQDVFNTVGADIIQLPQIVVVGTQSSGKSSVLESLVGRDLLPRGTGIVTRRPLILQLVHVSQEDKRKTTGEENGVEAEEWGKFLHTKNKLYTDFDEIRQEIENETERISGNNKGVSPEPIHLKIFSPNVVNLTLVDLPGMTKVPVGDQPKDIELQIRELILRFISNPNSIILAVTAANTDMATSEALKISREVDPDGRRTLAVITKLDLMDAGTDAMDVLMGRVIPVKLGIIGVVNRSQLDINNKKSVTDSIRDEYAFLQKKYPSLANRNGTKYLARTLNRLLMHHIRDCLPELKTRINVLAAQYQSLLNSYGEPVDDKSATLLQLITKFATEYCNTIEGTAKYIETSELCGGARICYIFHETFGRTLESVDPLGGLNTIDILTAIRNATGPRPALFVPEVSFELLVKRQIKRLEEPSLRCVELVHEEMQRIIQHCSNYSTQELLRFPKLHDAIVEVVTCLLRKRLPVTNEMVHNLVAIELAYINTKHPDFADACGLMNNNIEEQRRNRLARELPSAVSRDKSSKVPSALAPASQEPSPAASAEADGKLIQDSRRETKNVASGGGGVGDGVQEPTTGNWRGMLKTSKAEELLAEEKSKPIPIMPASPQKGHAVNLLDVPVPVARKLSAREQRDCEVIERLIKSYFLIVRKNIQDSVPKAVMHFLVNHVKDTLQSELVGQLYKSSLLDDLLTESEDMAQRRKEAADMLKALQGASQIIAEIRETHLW
UniProt P48431: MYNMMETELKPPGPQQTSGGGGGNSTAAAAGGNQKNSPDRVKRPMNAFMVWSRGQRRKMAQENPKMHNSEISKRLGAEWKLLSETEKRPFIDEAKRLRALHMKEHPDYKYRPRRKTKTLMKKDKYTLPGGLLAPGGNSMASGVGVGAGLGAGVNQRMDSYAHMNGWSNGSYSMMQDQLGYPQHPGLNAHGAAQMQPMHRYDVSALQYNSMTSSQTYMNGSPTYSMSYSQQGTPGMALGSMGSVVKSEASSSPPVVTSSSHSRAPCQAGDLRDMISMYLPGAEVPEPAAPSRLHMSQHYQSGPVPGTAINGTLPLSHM
UniProt P48432: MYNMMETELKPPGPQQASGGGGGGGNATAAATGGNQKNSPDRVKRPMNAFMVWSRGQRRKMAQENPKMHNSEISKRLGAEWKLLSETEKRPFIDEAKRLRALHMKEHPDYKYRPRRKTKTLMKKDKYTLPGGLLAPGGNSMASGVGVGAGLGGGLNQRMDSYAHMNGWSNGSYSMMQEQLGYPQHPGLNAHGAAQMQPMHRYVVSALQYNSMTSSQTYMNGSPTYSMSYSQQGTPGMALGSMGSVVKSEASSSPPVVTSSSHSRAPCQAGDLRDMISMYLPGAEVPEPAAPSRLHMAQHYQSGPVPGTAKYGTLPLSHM

Experiments:
[1] = biological target: YAP (yes-associated protein) (human (endogenous in patient breast tissue and MDA-MB-231)) (UniProt P46937); assay: co-IP; anti-YAP or anti-TAZ antibody (control IgG) overnight at 4 °C, protein A/G beads; nuclear and cytoplasmic fractions of chemo-treated patient breast tumors and adjacent normal tissue; immunoblot
[2] = biological target: TAZ (transcriptional co-activator with PDZ-binding motif) (human (endogenous in patient breast tissue and MDA-MB-231)) (UniProt Q9GZV5); assay: as above
[3] = biological target: YAP (yes-associated protein) (human (endogenous in patient breast tissue and MDA-MB-231)) (UniProt P46937); assay: co-IP; anti-YAP or anti-TAZ antibody (control IgG); nucleus and cytoplasm of CD44+/CD24- cells (CSCs) and of the rest of the cells (non-CSCs) sorted from patient breast tumors; immunoblot
[4] = biological target: TAZ (transcriptional co-activator with PDZ-binding motif) (human (endogenous in patient breast tissue and MDA-MB-231)) (UniProt Q9GZV5); assay: as above
[5] = biological target: YAP (yes-associated protein) (human (endogenous in patient breast tissue and MDA-MB-231)) (UniProt P46937); assay: co-IP; anti-YAP or anti-TAZ antibody (control IgG) overnight at 4 °C, protein A/G beads; nuclear and cytoplasmic fractions of MDA-MB-231 mammospheres (also adherent cells; also mammospheres treated with 4 µM verteporfin); immunoblot
[6] = biological target: TAZ (transcriptional co-activator with PDZ-binding motif) (human (endogenous in patient breast tissue and MDA-MB-231)) (UniProt Q9GZV5); assay: as above
[7] = biological target: YAP (yes-associated protein) (human (endogenous in patient breast tissue and MDA-MB-231)) (UniProt P46937); assay: co-IP; anti-YAP or anti-TAZ antibody (control IgG); ALDH+ and ALDH- cells sorted from patient breast tumors and adjacent normal tissue, nucleus; immunoblot
[8] = biological target: TAZ (transcriptional co-activator with PDZ-binding motif) (human (endogenous in patient breast tissue and MDA-MB-231)) (UniProt Q9GZV5); assay: as above
[9] = biological target: TAZ (mouse) (mouse (endogenous in BALB/c mammary tissue and 4T1 tumors)) (UniProt Q9EPK5); assay: co-IP; anti-YAP or anti-TAZ antibody (control IgG); ALDH+ and ALDH- cells sorted from normal mouse mammary tissue and 4T1-induced mammary tumors; immunoblot
[10] = biological target: YAP (mouse) (mouse (endogenous in BALB/c mammary tissue and 4T1 tumors)) (UniProt P46938); assay: as above

Measured: binding

DRP1 (from UniProt O00429 1-736)
binds: [1] | [2] | [3] | [4] | [5] | [6]

SOX2 (from UniProt P48431 1-317)
not listed: [9] | [10]
binds: all other assays above

SOX2 (mouse) (from UniProt P48432 1-319)
binds: [9] | [10]

TAZ (mouse) (from UniProt Q9EPK5 1-395)
binds: [10]
